Source: ChEMBL document CHEMBL3988442, “University of Dundee, Small-Polar-MMV Screening Library” (2021).

Values are the deposited “Percent Effect”, in %.
How 0% and 100% were set is not recorded. Most values in the screen are low, and negative values occur.
The compounds are a random part of those screened.

Mtb growth Cornell: 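Whole-cell assay for inhibitors of Mycobacterium tuberculosis growth, labelled Cornell in the record; the read-out is not stated. The concentration is filed as 10 mM, unlikely as a test dose, so the dose is not known. The record gives no direction; compounds strong in two other growth screens of this library score well above the rest, so higher reads as stronger inhibition. About 53,000 compounds were tested under these conditions; 1.7% (about 900) showed 50% or more at least once.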
Mtb heat-shock: 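Assay on Mycobacterium tuberculosis, filed only as a heat shock assay from Cornell; the read-out is not stated. The concentration is filed as 10 mM, unlikely as a test dose, so the dose is not known. Higher reads as stronger inhibition (inferred: compounds with an IC50 in retests scored well above the rest). Of about 69,000 compounds tested this way, about 930 (1.4%) reached 50% or more in at least one test.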

SMILES: O=C(O)C(F)(F)F.[H][C@@]12CCN(Cc3nc(C)cs3)C[C@@]1([H])O[C@@H](c1nc(C)no1)C2
Mtb growth Cornell: -13.01
Mtb heat-shock: -42.3

SMILES: COc1ccnc(N(C)Cc2ccccc2O)n1
Mtb growth Cornell: 19.13
Mtb heat-shock: -13

SMILES: N#CCCN(CC(=O)Nc1ccc(Br)cc1Cl)Cc1cccnc1
Mtb heat-shock: -14.41

SMILES: CCNc1ncc(C)c(-c2cnn(C)c2)n1
Mtb heat-shock: -15.76

SMILES: O=C(NCC1(O)CCOC1)NCC1(c2ccccc2Cl)CC1 (centres unmarked)
Mtb growth Cornell: 7.825
Mtb heat-shock: 2.664

SMILES: COCCNC(=O)c1ccc(NCc2c(C)noc2C)cc1Cl
Mtb growth Cornell: 15.14
Mtb heat-shock: -5.72

SMILES: [H][C@]12CN(C(=O)c3cnc(C)nc3)CC[C@@]1(O)CCN(C(=O)N(C)C)C2
Mtb growth Cornell: 20.79
Mtb heat-shock: 7.25

SMILES: Cc1nc(NC(=O)CN2C(=O)c3ccccc3NC2C(C)C)sc1C (centres unmarked)
Mtb growth Cornell: 30.94
Mtb heat-shock: 0.2265

SMILES: O=C(C[S+]([O-])Cc1cccc(C(F)(F)F)c1)NC1CCCC1 (centres unmarked)
Mtb growth Cornell: 34.85
Mtb heat-shock: -18.37

SMILES: [H][C@@]12C[C@H](C(=O)NCC(C)C)[C@@]([H])(CN(C(=O)NCC3CCCCC3)C1)O2
Mtb growth Cornell: 25.57
Mtb heat-shock: -6.535

SMILES: O=C(CCCn1cccn1)N1C[C@@H](O)[C@H](Oc2cccc(F)c2)C1
Mtb growth Cornell: -13.99
Mtb heat-shock: -5.553

SMILES: COC(=O)C(NC(=O)CCc1ccco1)c1cc(F)ccc1F (centres unmarked)
Mtb heat-shock: 20.59

SMILES: COCCN1CC2(CCCN(c3ncc(Cl)cc3F)C2)CCC1=O (centres unmarked)
Mtb growth Cornell: 19.88
Mtb heat-shock: -13.15

SMILES: COc1ccccc1C1(CNCc2cccc(O)c2)CCOCC1
Mtb growth Cornell: 18.01
Mtb heat-shock: -13.24

SMILES: c1cn(CCc2c[nH]cn2)c(-c2cc(CN3CCCC3)cs2)n1
Mtb growth Cornell: 29.69
Mtb heat-shock: -33.4

SMILES: CC(=O)c1ccc(-c2cnn(CC(=O)Nc3cc(C)nn3C)c2)nc1
Mtb heat-shock: 8.176

SMILES: CCn1nc(C)cc1C(=O)NCc1cccnc1N(C)C
Mtb growth Cornell: -1.248
Mtb heat-shock: 3.294

SMILES: CCNC(=O)CCC(=O)NCC1(O)CCC(C(C)(C)C)CC1 (centres unmarked)
Mtb growth Cornell: 16.88
Mtb heat-shock: -35.07

SMILES: CNc1nc(C2CCCN(C(=O)C3CCCCC3)C2)nc2c1CNCC2 (centres unmarked)
Mtb growth Cornell: 9.614
Mtb heat-shock: -1.493

SMILES: Cc1cccc(CNC(=O)CC2CCN(S(C)(=O)=O)CC2)n1
Mtb growth Cornell: 6.902
Mtb heat-shock: -7.756

SMILES: OCCOCCN1CCCC1c1cccc(Cl)c1 (centres unmarked)
Mtb growth Cornell: -9.874
Mtb heat-shock: -0.5077

SMILES: CCc1nnc2n1CCN(C(=O)C1CCC(n3cccc3)CC1)C2 (centres unmarked)
Mtb growth Cornell: -8.205
Mtb heat-shock: -4.282

SMILES: [H][C@]12CN(CC3CCC3)C[C@@]1(C(=O)O)CN(C(=O)c1cnccc1C)C2
Mtb growth Cornell: 6.837
Mtb heat-shock: -24.53

SMILES: COCC(=O)N1CCC2(C1)c1ccccc1S(=O)(=O)N2CC1CC1 (centres unmarked)
Mtb growth Cornell: -1.375
Mtb heat-shock: 13.08

SMILES: c1cncc(OC2CCN(CCn3cc4ccccc4n3)CC2)c1
Mtb growth Cornell: -4.049
Mtb heat-shock: -35.45

SMILES: O=C(O)C(F)(F)F.[H][C@@]12CCN(CCOC)C[C@]1([H])[C@H](C(=O)N1CCCO1)CCO2
Mtb growth Cornell: -11.11
Mtb heat-shock: -19.22

SMILES: c1ccc(OCCNc2ncnc3sc4c(c23)CCNC4)cc1
Mtb growth Cornell: 44.96
Mtb heat-shock: 56.72

Repeated from the top, 2 entries:

| SMILES | Mtb growth Cornell | Mtb heat-shock |
|---|---|---|
| `O=C(O)C(F)(F)F.[H][C@@]12CCN(Cc3nc(C)cs3)C[C@@]1([H])O[C@@H](c1nc(C)no1)C2` | -13.01 | -42.3 |
| `COc1ccnc(N(C)Cc2ccccc2O)n1` | 19.13 | -13 |